Reference: the supplement of paper PMC6411743
± gives the standard deviation of the averaged measurements. The list shows a part of the results.

Chains of the proteins cited; added tags and fusions are not shown. Lines headed by an entry give the natural chain unless they say otherwise; changes in a name come on top.
UniProt O75717: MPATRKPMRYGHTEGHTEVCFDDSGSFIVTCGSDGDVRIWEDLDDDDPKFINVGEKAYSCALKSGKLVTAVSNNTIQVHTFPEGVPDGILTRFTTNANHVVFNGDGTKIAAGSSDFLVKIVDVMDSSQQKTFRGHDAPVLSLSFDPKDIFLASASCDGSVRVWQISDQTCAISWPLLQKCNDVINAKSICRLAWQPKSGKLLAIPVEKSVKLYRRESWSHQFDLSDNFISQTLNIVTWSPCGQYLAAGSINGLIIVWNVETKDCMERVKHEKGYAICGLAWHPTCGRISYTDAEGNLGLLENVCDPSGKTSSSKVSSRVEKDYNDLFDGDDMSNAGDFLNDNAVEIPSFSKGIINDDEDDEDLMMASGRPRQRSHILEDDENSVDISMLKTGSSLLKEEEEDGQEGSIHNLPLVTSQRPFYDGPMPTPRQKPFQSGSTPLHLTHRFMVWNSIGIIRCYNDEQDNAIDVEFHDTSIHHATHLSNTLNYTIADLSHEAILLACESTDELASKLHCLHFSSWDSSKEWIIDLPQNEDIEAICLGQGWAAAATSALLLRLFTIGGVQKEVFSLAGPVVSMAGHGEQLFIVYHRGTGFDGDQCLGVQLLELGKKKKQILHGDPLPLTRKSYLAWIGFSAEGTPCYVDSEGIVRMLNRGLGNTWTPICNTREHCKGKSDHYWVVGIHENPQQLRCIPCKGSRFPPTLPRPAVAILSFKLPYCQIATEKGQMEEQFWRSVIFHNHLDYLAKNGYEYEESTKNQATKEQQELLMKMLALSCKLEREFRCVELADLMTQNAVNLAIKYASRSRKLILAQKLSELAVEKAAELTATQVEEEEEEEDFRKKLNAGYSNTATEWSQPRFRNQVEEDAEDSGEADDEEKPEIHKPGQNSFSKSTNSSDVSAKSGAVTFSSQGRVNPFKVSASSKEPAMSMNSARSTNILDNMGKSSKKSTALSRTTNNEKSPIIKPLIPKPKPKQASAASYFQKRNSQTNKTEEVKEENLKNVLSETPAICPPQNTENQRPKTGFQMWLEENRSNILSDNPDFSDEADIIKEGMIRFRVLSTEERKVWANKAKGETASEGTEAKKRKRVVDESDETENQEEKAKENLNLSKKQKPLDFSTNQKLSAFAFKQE
UniProt P00558: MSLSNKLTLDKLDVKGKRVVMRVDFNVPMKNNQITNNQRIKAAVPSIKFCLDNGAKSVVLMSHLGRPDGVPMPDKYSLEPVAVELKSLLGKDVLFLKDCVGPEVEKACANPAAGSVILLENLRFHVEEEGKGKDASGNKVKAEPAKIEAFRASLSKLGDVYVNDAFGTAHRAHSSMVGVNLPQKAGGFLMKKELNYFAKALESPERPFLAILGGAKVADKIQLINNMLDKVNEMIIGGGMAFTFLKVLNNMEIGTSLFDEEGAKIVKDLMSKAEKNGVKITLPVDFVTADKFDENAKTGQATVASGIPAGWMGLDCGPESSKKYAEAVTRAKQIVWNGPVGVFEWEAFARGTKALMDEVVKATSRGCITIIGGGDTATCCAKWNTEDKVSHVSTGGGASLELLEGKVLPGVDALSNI
UniProt O95456: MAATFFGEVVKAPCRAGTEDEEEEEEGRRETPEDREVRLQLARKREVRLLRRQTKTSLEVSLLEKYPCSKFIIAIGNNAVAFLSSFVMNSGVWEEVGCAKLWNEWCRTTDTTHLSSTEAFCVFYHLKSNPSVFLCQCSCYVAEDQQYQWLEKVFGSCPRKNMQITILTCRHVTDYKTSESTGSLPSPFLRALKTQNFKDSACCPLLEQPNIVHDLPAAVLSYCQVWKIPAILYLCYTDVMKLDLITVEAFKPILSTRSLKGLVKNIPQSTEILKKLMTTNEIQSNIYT
UniProt P06756, whole entry: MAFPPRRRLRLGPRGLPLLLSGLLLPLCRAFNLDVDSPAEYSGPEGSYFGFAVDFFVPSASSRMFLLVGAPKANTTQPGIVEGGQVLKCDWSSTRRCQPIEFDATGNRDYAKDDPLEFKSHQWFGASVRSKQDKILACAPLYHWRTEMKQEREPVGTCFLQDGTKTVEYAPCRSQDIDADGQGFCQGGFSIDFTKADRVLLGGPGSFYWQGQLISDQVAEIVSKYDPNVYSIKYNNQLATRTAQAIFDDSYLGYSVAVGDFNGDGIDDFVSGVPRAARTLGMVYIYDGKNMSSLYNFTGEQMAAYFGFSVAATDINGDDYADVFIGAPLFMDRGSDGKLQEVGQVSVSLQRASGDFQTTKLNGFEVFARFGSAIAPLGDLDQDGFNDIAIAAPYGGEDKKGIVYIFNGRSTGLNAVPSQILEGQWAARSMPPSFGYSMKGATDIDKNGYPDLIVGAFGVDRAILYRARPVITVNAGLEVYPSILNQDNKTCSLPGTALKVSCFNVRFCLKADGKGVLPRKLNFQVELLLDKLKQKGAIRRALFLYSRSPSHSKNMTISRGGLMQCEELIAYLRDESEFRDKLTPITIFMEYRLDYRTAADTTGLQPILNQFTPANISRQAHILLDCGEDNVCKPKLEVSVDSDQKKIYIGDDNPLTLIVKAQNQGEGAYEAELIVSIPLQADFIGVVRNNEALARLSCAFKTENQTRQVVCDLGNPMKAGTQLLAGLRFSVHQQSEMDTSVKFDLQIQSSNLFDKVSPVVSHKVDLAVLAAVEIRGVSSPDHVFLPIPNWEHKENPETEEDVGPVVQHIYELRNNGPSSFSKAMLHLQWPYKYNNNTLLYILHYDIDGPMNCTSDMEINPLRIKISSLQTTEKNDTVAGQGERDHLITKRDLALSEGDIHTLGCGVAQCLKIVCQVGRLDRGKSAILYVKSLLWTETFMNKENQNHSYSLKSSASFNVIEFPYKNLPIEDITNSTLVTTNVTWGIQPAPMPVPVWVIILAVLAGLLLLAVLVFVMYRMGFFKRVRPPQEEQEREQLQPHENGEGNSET
UniProt O95793: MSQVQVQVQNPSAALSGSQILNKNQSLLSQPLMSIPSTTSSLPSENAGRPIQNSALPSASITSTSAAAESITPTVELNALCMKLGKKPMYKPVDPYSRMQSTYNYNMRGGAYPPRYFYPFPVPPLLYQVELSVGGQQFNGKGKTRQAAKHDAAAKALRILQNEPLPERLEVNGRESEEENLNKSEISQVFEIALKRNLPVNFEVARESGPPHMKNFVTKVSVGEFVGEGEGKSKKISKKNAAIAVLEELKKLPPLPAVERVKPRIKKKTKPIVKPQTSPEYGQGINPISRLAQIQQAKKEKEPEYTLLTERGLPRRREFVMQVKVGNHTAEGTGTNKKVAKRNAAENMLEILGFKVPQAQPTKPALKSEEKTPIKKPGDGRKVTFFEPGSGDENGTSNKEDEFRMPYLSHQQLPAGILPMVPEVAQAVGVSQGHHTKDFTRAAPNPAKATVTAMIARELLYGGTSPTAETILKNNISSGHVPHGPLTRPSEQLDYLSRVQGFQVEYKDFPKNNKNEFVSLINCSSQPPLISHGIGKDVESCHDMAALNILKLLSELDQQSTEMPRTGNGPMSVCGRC
UniProt P04083: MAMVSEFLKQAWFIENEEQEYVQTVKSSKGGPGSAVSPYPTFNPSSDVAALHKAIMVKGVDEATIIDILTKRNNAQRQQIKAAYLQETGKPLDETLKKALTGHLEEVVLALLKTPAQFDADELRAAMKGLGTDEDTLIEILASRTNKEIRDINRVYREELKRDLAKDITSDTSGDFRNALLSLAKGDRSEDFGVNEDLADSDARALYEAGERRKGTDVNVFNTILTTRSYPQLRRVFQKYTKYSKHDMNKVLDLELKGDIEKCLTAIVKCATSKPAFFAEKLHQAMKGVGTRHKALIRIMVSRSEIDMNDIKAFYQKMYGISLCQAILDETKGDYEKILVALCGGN
UniProt O75874, whole entry: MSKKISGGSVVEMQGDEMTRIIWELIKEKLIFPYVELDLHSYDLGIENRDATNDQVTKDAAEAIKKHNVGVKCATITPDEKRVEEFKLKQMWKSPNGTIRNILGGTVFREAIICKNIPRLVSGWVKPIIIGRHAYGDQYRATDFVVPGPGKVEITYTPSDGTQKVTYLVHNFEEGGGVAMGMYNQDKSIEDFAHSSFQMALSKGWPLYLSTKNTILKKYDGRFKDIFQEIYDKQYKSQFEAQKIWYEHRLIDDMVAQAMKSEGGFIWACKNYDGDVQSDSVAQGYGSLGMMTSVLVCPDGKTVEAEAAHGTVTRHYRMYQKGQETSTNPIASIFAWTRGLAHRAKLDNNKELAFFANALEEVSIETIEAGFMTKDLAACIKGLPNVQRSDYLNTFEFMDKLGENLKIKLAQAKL
UniProt O75694: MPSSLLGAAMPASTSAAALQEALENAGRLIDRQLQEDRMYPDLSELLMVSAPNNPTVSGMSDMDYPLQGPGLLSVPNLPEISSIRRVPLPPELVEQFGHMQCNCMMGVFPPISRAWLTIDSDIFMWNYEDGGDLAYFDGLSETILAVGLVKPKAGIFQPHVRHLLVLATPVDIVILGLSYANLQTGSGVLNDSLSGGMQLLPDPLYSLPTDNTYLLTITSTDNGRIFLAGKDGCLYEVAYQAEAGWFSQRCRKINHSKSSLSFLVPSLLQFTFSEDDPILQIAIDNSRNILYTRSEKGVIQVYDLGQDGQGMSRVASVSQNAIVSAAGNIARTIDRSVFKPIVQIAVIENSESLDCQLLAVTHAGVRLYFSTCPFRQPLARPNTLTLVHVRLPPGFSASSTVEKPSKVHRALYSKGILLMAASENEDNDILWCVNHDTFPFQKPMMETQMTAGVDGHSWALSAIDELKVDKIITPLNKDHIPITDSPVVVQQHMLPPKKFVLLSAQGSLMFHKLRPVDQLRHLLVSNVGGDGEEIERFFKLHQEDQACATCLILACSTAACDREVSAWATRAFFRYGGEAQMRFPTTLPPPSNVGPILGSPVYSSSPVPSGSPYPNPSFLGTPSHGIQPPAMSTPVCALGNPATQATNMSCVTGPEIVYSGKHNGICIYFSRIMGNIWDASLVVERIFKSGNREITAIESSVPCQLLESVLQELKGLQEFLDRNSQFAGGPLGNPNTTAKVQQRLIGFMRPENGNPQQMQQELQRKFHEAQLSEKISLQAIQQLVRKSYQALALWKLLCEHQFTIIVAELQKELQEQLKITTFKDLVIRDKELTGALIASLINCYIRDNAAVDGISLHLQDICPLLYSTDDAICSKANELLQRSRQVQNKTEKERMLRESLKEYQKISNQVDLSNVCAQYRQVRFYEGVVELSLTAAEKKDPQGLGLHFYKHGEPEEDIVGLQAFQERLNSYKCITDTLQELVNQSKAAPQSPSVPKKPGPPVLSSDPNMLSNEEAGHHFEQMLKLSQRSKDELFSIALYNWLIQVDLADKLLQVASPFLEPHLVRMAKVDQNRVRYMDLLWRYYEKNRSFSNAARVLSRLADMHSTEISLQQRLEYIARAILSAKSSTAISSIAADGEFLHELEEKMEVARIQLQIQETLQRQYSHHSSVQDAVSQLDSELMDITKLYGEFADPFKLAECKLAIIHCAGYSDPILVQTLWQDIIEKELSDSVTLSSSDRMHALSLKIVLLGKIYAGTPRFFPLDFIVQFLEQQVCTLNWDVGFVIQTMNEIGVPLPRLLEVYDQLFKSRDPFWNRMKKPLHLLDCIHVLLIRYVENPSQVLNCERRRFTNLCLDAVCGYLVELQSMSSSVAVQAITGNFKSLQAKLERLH
UniProt O94817, whole entry: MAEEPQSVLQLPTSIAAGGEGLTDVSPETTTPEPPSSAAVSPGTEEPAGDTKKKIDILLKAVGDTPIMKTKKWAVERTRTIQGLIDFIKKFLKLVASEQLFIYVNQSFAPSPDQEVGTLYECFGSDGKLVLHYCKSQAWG
UniProt O75909: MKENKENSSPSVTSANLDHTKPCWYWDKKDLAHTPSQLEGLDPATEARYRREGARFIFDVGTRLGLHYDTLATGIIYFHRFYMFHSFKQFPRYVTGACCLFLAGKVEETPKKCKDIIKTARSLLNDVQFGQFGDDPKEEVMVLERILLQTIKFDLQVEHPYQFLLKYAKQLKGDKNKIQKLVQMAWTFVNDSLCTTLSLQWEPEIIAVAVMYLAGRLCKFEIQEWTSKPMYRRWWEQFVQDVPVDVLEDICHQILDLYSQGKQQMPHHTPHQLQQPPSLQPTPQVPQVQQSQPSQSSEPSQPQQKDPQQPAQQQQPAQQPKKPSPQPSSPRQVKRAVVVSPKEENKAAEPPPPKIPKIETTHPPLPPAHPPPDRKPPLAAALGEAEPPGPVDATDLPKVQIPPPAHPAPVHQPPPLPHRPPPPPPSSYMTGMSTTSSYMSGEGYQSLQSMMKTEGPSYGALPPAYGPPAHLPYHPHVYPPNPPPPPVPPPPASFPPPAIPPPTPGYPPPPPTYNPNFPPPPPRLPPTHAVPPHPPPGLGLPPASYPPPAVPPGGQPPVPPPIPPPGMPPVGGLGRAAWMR
UniProt O95297: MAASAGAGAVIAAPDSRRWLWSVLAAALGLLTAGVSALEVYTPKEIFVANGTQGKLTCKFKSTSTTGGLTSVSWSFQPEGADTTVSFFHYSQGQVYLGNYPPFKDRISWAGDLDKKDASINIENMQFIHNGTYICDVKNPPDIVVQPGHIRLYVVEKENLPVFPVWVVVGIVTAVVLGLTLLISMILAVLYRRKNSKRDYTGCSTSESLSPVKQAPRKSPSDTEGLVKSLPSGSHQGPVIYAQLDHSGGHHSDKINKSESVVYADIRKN

Compound: Nc1nc2c(ncn2[C@@H]2O[C@H](COP(=O)(O)OP(=O)(O)OP(=O)(O)O)[C@@H](O)[C@H]2O)c(=O)[nH]1 [guanosine triphosphate]
Assay: NP40-soluble protein abundance relative to vehicle (solubility fold change) (ratio); higher = more soluble protein in presence of GTP
In short: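 Jurkat crude lysate prepared with a Dounce homogeniser was treated at eight concentrations spanning 0.1 to 10 mM, 10 min at room temperature then 3 min at 37 °C. Solubilisation with 0.8% NP40 and benzonase and ultracentrifugation preceded TMT labelling of the supernatant for LC-MS/MS. Fold change against the detergent-processed vehicle was determined per replicate from vsn-normalised intensities, across three independent experiments.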

WDHD1 (UniProt O75717)
NP40-soluble protein abundance (concentration: 0.1mM): 0.991 ± 0.055 | NP40-soluble protein abundance (concentration: 0.5mM): 1 ± 0.044 | NP40-soluble protein abundance (concentration: 1mM): 0.968 ± 0.037 | NP40-soluble protein abundance (concentration: 2mM): 0.975 ± 0.038 | NP40-soluble protein abundance (concentration: 4mM): 0.952 ± 0.048 | NP40-soluble protein abundance (concentration: 6mM): 0.961 ± 0.034 | NP40-soluble protein abundance (concentration: 8mM): 0.985 ± 0.056 | NP40-soluble protein abundance (concentration: 10mM): 0.953 ± 0.035

UniProt P00558 and related entries
NP40-soluble protein abundance (concentration: 0.1mM): 0.907 ± 0.059 | NP40-soluble protein abundance (concentration: 0.5mM): 0.882 ± 0.059 | NP40-soluble protein abundance (concentration: 1mM): 0.859 ± 0.049 | NP40-soluble protein abundance (concentration: 2mM): 0.829 ± 0.13 | NP40-soluble protein abundance (concentration: 4mM): 0.787 ± 0.069 | NP40-soluble protein abundance (concentration: 6mM): 0.836 ± 0.083 | NP40-soluble protein abundance (concentration: 8mM): 0.834 ± 0.068 | NP40-soluble protein abundance (concentration: 10mM): 0.812 ± 0.076

UniProt O95456 and related entries
NP40-soluble protein abundance (concentration: 0.1mM): 0.947 ± 0.1 | NP40-soluble protein abundance (concentration: 0.5mM): 0.941 ± 0.078 | NP40-soluble protein abundance (concentration: 1mM): 0.913 ± 0.082 | NP40-soluble protein abundance (concentration: 2mM): 0.911 ± 0.074 | NP40-soluble protein abundance (concentration: 4mM): 0.923 ± 0.063 | NP40-soluble protein abundance (concentration: 6mM): 0.91 ± 0.081 | NP40-soluble protein abundance (concentration: 8mM): 0.916 ± 0.09 | NP40-soluble protein abundance (concentration: 10mM): 0.903 ± 0.088

UniProt P06756 and related entries
NP40-soluble protein abundance (concentration: 0.1mM): 0.962 ± 0.028 | NP40-soluble protein abundance (concentration: 0.5mM): 1.01 ± 0.023 | NP40-soluble protein abundance (concentration: 1mM): 1.06 ± 0.072 | NP40-soluble protein abundance (concentration: 2mM): 1.04 ± 0.094 | NP40-soluble protein abundance (concentration: 4mM): 1.02 ± 0.066 | NP40-soluble protein abundance (concentration: 6mM): 1.09 ± 0.093 | NP40-soluble protein abundance (concentration: 8mM): 1 ± 0.058 | NP40-soluble protein abundance (concentration: 10mM): 1.04 ± 0.092

UniProt O75190-2|O75190-4|O75190
NP40-soluble protein abundance (concentration: 0.1mM): 1.15 ± 0.062 | NP40-soluble protein abundance (concentration: 0.5mM): 1.05 ± 0.091 | NP40-soluble protein abundance (concentration: 1mM): 1.14 ± 0.083 | NP40-soluble protein abundance (concentration: 2mM): 1.14 ± 0.078 | NP40-soluble protein abundance (concentration: 4mM): 1.23 ± 0.073 | NP40-soluble protein abundance (concentration: 6mM): 1.14 ± 0.033 | NP40-soluble protein abundance (concentration: 8mM): 1.21 ± 0.084 | NP40-soluble protein abundance (concentration: 10mM): 1.09 ± 0.069

UniProt O95793 and related entries
NP40-soluble protein abundance (concentration: 0.1mM): 0.997 ± 0.045 | NP40-soluble protein abundance (concentration: 0.5mM): 1.02 ± 0.044 | NP40-soluble protein abundance (concentration: 1mM): 1.1 ± 0.079 | NP40-soluble protein abundance (concentration: 2mM): 1.18 ± 0.076 | NP40-soluble protein abundance (concentration: 4mM): 1.33 ± 0.11 | NP40-soluble protein abundance (concentration: 6mM): 1.42 ± 0.13 | NP40-soluble protein abundance (concentration: 8mM): 1.54 ± 0.2 | NP40-soluble protein abundance (concentration: 10mM): 1.82 ± 0.31

ANXA1 (UniProt P04083)
NP40-soluble protein abundance (concentration: 0.1mM): 0.854 ± 0.025 | NP40-soluble protein abundance (concentration: 0.5mM): 0.818 ± 0.074 | NP40-soluble protein abundance (concentration: 1mM): 0.895 ± 0.04 | NP40-soluble protein abundance (concentration: 2mM): 0.868 ± 0.064 | NP40-soluble protein abundance (concentration: 4mM): 0.857 ± 0.061 | NP40-soluble protein abundance (concentration: 6mM): 0.86 ± 0.072 | NP40-soluble protein abundance (concentration: 8mM): 0.796 ± 0.12 | NP40-soluble protein abundance (concentration: 10mM): 0.867 ± 0.082

IDH1 (UniProt O75874)
NP40-soluble protein abundance (concentration: 0.1mM): 0.985 ± 0.012 | NP40-soluble protein abundance (concentration: 0.5mM): 0.9926 ± 0.0038 | NP40-soluble protein abundance (concentration: 1mM): 0.93 ± 0.022 | NP40-soluble protein abundance (concentration: 2mM): 0.911 ± 0.022 | NP40-soluble protein abundance (concentration: 4mM): 0.889 ± 0.037 | NP40-soluble protein abundance (concentration: 6mM): 0.9 ± 0.033 | NP40-soluble protein abundance (concentration: 8mM): 0.888 ± 0.029 | NP40-soluble protein abundance (concentration: 10mM): 0.88 ± 0.055

SSB (UniProt P05455)
NP40-soluble protein abundance (concentration: 0.1mM): 0.888 ± 0.058 | NP40-soluble protein abundance (concentration: 0.5mM): 0.918 ± 0.073 | NP40-soluble protein abundance (concentration: 1mM): 0.904 ± 0.073 | NP40-soluble protein abundance (concentration: 2mM): 0.869 ± 0.093 | NP40-soluble protein abundance (concentration: 4mM): 0.835 ± 0.083 | NP40-soluble protein abundance (concentration: 6mM): 0.882 ± 0.086 | NP40-soluble protein abundance (concentration: 8mM): 0.866 ± 0.073 | NP40-soluble protein abundance (concentration: 10mM): 0.879 ± 0.07

NUP155 (UniProt O75694)
NP40-soluble protein abundance (concentration: 0.1mM): 1.07 ± 0.04 | NP40-soluble protein abundance (concentration: 0.5mM): 1.03 ± 0.056 | NP40-soluble protein abundance (concentration: 1mM): 0.998 ± 0.022 | NP40-soluble protein abundance (concentration: 2mM): 0.999 ± 0.059 | NP40-soluble protein abundance (concentration: 4mM): 1.03 ± 0.04 | NP40-soluble protein abundance (concentration: 6mM): 0.989 ± 0.051 | NP40-soluble protein abundance (concentration: 8mM): 0.991 ± 0.057 | NP40-soluble protein abundance (concentration: 10mM): 1.01 ± 0.085

ATRN (UniProt O75882)
NP40-soluble protein abundance (concentration: 0.1mM): 1.03 ± 0.19 | NP40-soluble protein abundance (concentration: 0.5mM): 1.1 ± 0.11 | NP40-soluble protein abundance (concentration: 1mM): 1 ± 0.14 | NP40-soluble protein abundance (concentration: 2mM): 1.11 ± 0.14 | NP40-soluble protein abundance (concentration: 4mM): 1.02 ± 0.045 | NP40-soluble protein abundance (concentration: 6mM): 1.09 ± 0.17 | NP40-soluble protein abundance (concentration: 8mM): 1.11 ± 0.13 | NP40-soluble protein abundance (concentration: 10mM): 1.13 ± 0.18

ATG12 (UniProt O94817)
NP40-soluble protein abundance (concentration: 0.1mM): 0.994 ± 0.056 | NP40-soluble protein abundance (concentration: 0.5mM): 0.94 ± 0.019 | NP40-soluble protein abundance (concentration: 1mM): 0.944 ± 0.025 | NP40-soluble protein abundance (concentration: 2mM): 0.893 ± 0.081 | NP40-soluble protein abundance (concentration: 4mM): 0.908 ± 0.071 | NP40-soluble protein abundance (concentration: 6mM): 0.911 ± 0.055 | NP40-soluble protein abundance (concentration: 8mM): 0.958 ± 0.022 | NP40-soluble protein abundance (concentration: 10mM): 0.918 ± 0.065

UniProt O75909 and related entries
NP40-soluble protein abundance (concentration: 0.1mM): 1.04 ± 0.014 | NP40-soluble protein abundance (concentration: 0.5mM): 1.08 ± 0.034 | NP40-soluble protein abundance (concentration: 1mM): 1.13 ± 0.028 | NP40-soluble protein abundance (concentration: 2mM): 1.07 ± 0.085 | NP40-soluble protein abundance (concentration: 4mM): 1.12 ± 0.086 | NP40-soluble protein abundance (concentration: 6mM): 1.09 ± 0.081 | NP40-soluble protein abundance (concentration: 8mM): 1.134 ± 0.009 | NP40-soluble protein abundance (concentration: 10mM): 1.07 ± 0.052

UniProt O95297 and related entries
NP40-soluble protein abundance (concentration: 0.1mM): 0.971 ± 0.044 | NP40-soluble protein abundance (concentration: 0.5mM): 0.937 ± 0.026 | NP40-soluble protein abundance (concentration: 1mM): 0.964 ± 0.061 | NP40-soluble protein abundance (concentration: 2mM): 0.888 ± 0.056 | NP40-soluble protein abundance (concentration: 4mM): 0.933 ± 0.016 | NP40-soluble protein abundance (concentration: 6mM): 0.885 ± 0.011 | NP40-soluble protein abundance (concentration: 8mM): 0.901 ± 0.039 | NP40-soluble protein abundance (concentration: 10mM): 0.911 ± 0.076

UniProt O75928 and related entries
NP40-soluble protein abundance (concentration: 0.1mM): 0.9953 ± 0.0044 | NP40-soluble protein abundance (concentration: 0.5mM): 0.918 ± 0.031 | NP40-soluble protein abundance (concentration: 1mM): 0.974 ± 0.017 | NP40-soluble protein abundance (concentration: 2mM): 0.895 ± 0.058 | NP40-soluble protein abundance (concentration: 4mM): 0.898 ± 0.033 | NP40-soluble protein abundance (concentration: 6mM): 0.89 ± 0.072 | NP40-soluble protein abundance (concentration: 8mM): 0.968 ± 0.02 | NP40-soluble protein abundance (concentration: 10mM): 1.01 ± 0.041
